According to PMC13241479:
No constants are given. Whether binding was seen depends on the method and setting. Binding seen in cells or lysates may run through a third protein. A yes stands for co-enrichment or nearness to the bait. Other partners may have been found. Where a sequence is shown, tags or fusion partners need not be part of it.

B1: GPLD1 (bovine plasma) (enzyme, UniProt P80109 24-839)
chain: CGISTHIEIGHRALEFLHLQDGSINYKELLLRHQDAYQAGSVFPDSFYPSICERGQFHDVSESTHWTPFLNASVHYIRKNYPLPWDEDTEKLVAFLFGITSHMVADVNWHSLGIEQGFLRTMAAIDFHNSYPEAHPAGDFGGDVLSQFEFKFNYLSRHWYVPAEDLLGIYRELYGRIVITKKAIVDCSYLQFLEMYAEMLAISKLYPTYSVKSPFLVEQFQEYFLGGLEDMAFWSTNIYHLTSYMLKNGTSNCNLPENPLFITCGGQQNNTHGSKVQKNGFHKNVTAALTKNIGKHINYTKRGVFFSVDSWTMDSLSFMYKSLERSIREMFIGSSQPLTHVSSPAASYYLSFPYTRLGWAMTSADLNQDGYGDLVVGAPGYSHPGRIHVGRVYLIYGNDLGLPRIDLDLDKEAHGILEGFQPSGRFGSAVAVLDFNVDGVPDLAVGAPSVGSEKLTYTGAVYVYFGSKQGQLSSSPNVTISCQDTYCNLGWTLLAADVNGDSEPDLVIGSPFAPGGGKQKGIVAAFYSGSSYSSREKLNVEAANWMVKGEEDFAWLGYSLHGVNVNNRTLLLAGSPTWKDTSSQGHLFRTRDEKQSPGRVYGYFPPICQSWFTISGDKAMGKLGTSLSSGHVMVNGTRTQVLLVGAPTQDVVSKVSFLTMTLHQGGSTRMYELTPDSQPSLLSTFSGNRRFSRFGGVLHLSDLDNDGLDEIIVAAPLRITDATAGLMGEEDGRVYVFNGKQITVGDVTGKCKSWVTPCPEEKAQYVLISPEAGSRFGSSVITVRSKEKNQVIIAAGRSSLGARLSGVLHIYRLGQD
B2: APOD (bovine plasma) (protein, UniProt Q32KY0 21-189)
chain: QAFHLGKCPHPPVQENFDVNKYLGKWYEIEKIPVSFEKGSCIQANYSLKENGNVEVINKELRADGTVNQIEGEATPENITEPAKLAVKFFWFMPSAPYWVLATDYENYALVYSCTTIIWLFHMDHVWILGRNPYLPPETVTYLKDILTSNNIEVEKMTITDQVNCPESM
B3: SERPINF2 (bovine plasma) (protein, UniProt P28800 41-492)
chain: AQQKLPPLSLLKLDNQEPGGQIAPKKAPEDCKLSPTPEQTRRLARAMMTFTTDLFSLVAQSSTRPNLILSPLSVALALSHLALGAQNQTLQRLKEVLHADSGPCLPHLLSRLCQDLGPGAFRLAARMYLQKGFPIKEDFLEQSEQLFGAKPMSLTGMKGEDLANINRWVKEATEGKIEDFLSDLPDDTVLLLLNAIHFQGFWRSKFDPNLTQRGAFHLDEQFTVPVDMMQALTYPLHWFLLEQPEIQVAHFPFKNNMSFVVLMPTRFEWNASQVLANLTWDILHQPSLSERPTKVQLPKLHLKYQLDLVATLSQLGLQELFQAPDLRGISDERLVVSSVQHQSALELSEAGVQAAAATSTAMSRMSLSSFIVNRPFLFFILEDSTSLPLFVGSVRNPNPGAQPERKEQQDSPDGKDSFQDHKGLPRGDKPFDPDLKLGPPSEEDYAQPSSPK
B4: SPP2 (bovine plasma) (protein, UniProt Q27967 24-203)
chain: FPVYDYDPASLKEALSASVAKVNSQSLSPYLFRAFRSSVKRVNALDEDSLTMDLEFRIQETTCRRESEADPATCDFQRGYHVPVAVCRSTVRMSAEQVQNVWVRCHWSSSSGSSSSEEMFFGDILGSSTSRNSYLLGLTPDRSRGEPLYEPSREMRRNFPLGNRRYSNPWPRARVNPGFE
B5: apolipoprotein E (bovine plasma) (protein, UniProt Q03247 19-316)
chain: DMEGELGPEEPLTTQQPRGKDSQPWEQALGRFWDYLRWVQTLSDQVQEELLNTQVIQELTALMEETMKEVKAYKEELEGQLGPMAQETQARVSKELQAAQARLGSDMEDLRNRLAQYRSEVQAMLGQSTEELRARMASHLRKLPKRLLRDADDLKKRLAVYQAGASEGAERSLSAIRERFGPLVEQGQSRAATLSTLAGQPLLERAEAWRQKLHGRLEEVGVRAQDRLDKIRQQLEEVHAKVEEQGNQMRLQAEAFQARLRSWFEPLVEDMQRQWAGLVEKVQLALRPSPTSPPSENH
B6: PLA2G7 (bovine plasma) (protein, UniProt Q28017 22-444)
chain: FDWQDLNPVAYIESPAWVSKIQALMAAANIGQSKIPRGNGSYSVGCTDLMFDYTNKGTFLRLYYPSQDDDHSDTLWIPNKEYFLGLSKFLGTHWLVGKIMGLFFGSMTTPAAWNAHLRTGEKYPLIIFSHGLGAFRTIYSAIGIDLASHGFIVAAVEHRDGSASSTYYFKDQSAVEIGNKSWLYLRTLKRGEEEFPLRNEQLRQRAKECSQALSLILDIDHGRPVTNVLDLEFDVEQLKDSIDRDKIAIIGHSFGGATVIQTLSEDQRFRCGIALDAWMFPVGDEVYSRIPQPLFFINSERFQYPSNIIRMKKCFLPDRERKMITIRGSVHQNFVDFTFATSKIIGYLFTLKGDIDSNVAISLSNKASLAFLQKHLGLQKDFDQWDSLVEGEDHNLIPGTNINTTNHQAILQNSTGIERPNLD

molecular target: T1, His-ALFA-SAA1-N terminus (human SAA1 19-94 aa) (human) (UniProt P0DJI8); assay: affinity purification with mass spectrometry; ALFA-SAA1 (8 μM, urea-denatured stock) added to 50% bovine plasma in PBS, 16 h at 4°C; cleared at 20,000g; ALFA-nanobody beads 1 h at 4°C; washed four times with PBS; LC-MS/MS; only the target purified
T1 sequence: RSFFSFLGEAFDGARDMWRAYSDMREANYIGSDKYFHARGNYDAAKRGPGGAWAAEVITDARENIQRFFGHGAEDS

binding, binds:
B1, B2, B3, B4, B5, B6
